Source: publication PMC10248533, “Structures of Get3d reveal a distinct architecture associated with the emergence of photosynthesis” (The Journal of Biological Chemistry, 2023)

Experiments:
Assay in all cases: pull-down; His6-tagged Get3d co-expressed with MBP-Sbh1 in E. coli; lysate passed over nickel resin, eluted with imidazole; Coomassie SDS-PAGE and Western blot (anti-His5, anti-MBP)
[1] = target: His6-TEV-tagged AtGet3dΔ1–57ΔαCD (pET33b, TA protein capture assay) (Arabidopsis thaliana)
[2] = target: His6-TEV-tagged NosGet3d (pET33b, TA protein capture assay) (Nostoc sp. PCC 7120)
[3] = target: His6-TEV-tagged NosGet3dΔαCD (pET33b, TA protein capture assay) (Nostoc sp. PCC 7120)

Measured: binding

B1: maltose-binding protein (MBP)–tagged yeast TA protein Sbh1 (protein, UniProt P52870 1-82)
chain: MSSPTPPGGQRTLQKRKQGSSQKVAASAPKKNTNSNNSILKIYSDEATGLRVDPLVVLFLAVGFIFSVVALHVISKVAGKLF
binds: all assays above

No constants are given. Whether binding was seen depends on the method and setting. Binding seen in cells or lysates may run through a third protein. Binding calls can cover weak binding; strength is not graded here. Tags and fused reporters may be left off the sequences shown.
